Measured values published in the supplement of paper PMC6078165.

Test system: Hs578T
Assay: relative JC-1 red fluorescence (viability) vs pre-drug, coculture with fibroblast (fraction); higher = more viable cancer cells
Details: 1 µM
Method: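 JC-1 labelled TNBC cells cocultured 1:1 (1,500 cells each) with CellTrace Violet stained primary or stromal fibroblasts in 384-well plates in FluoroBrite medium, treated with one of 42 anticancer drugs at 0.1, 1, 10 or 100 uM. JC-1 red fluorescence (mitochondrial integrity in cancer cells only) was read by plate reader every 8 h for 72 h. Values are normalised to each well's pre-drug value. The stock of one drug was tenfold lower, so its dose labels may be too high.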

COc1cc([C@@H]2c3cc4c(cc3[C@@H](O[C@@H]3O[C@@H]5CO[C@@H](C)O[C@H]5[C@H](O)[C@H]3O)[C@H]3COC(=O)[C@H]23)OCO4)cc(OC)c1O [Etoposide]
Details	relative JC-1 red fluorescence
8 h	0.868
16 h	0.757
24 h	0.686
32 h	0.624
40 h	0.561
48 h	0.517
56 h	0.504
64 h	0.4721
72 h	0.464

relative JC-1 red fluorescence
Details	8 h	16 h	24 h	32 h	40 h	48 h	56 h	64 h	72 h
coculture fibroblast: C12385	0.791	0.68	0.669	0.571	0.514	0.493	0.48	0.489	0.501
coculture fibroblast: H6013	0.887	0.825	0.77	0.744	0.713	0.695	0.666	0.646	0.60888
coculture fibroblast: H6019	0.76	0.683	0.669	0.583	0.556	0.535	0.509	0.493	0.474
coculture fibroblast: H6076	0.853	0.777	0.741	0.7265	0.689	0.688	0.683	0.677	0.684
coculture fibroblast: H6231	0.8905	0.766	0.7199	0.6723	0.609	0.582	0.541	0.519	0.515
coculture fibroblast: HADF	0.834	0.779	0.716	0.672	0.646	0.624	0.593	0.589	0.5724
coculture fibroblast: HCFa	0.82	0.756	0.679	0.61	0.555	0.524	0.486	0.47	0.432
coculture fibroblast: HCPF	0.877	0.792	0.735	0.694	0.627	0.6	0.584	0.544	0.531
coculture fibroblast: HHSteC	0.851	0.786	0.721	0.664	0.605	0.569	0.547	0.521	0.489
coculture fibroblast: HMF	0.8729	0.776	0.709	0.682	0.619	0.592	0.559	0.532	0.5111
coculture fibroblast: HPFa	0.883	0.8091	0.7494	0.7	0.663	0.636	0.587	0.563	0.517
coculture fibroblast: HUF	0.821	0.69	0.65	0.5351	0.468	0.438	0.418	0.417	0.424
coculture fibroblast: Hs27A	0.884	0.8083	0.785	0.754	0.707	0.713	0.675	0.6755	0.641
coculture fibroblast: Hs343T	0.8762	0.763	0.7156	0.67802	0.606	0.576	0.5531	0.532	0.5306
coculture fibroblast: WS1	0.806	0.719	0.687	0.588	0.528	0.525	0.506	0.513	0.526

The reference is the same well before dosing, and untreated signal decays as well.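 Labels refer to human fibroblasts, largely primary: uterine (C12385, HUF), lung (H6013), bone (Hs27A), adrenal (HADF), skin (WS1), plus mammary HMF and breast cancer-associated Hs343T. Cancer lines are basal-like or mesenchymal-like triple-negative breast cancer. The paper counts as hits responses shifting over 3x the replicate standard deviation. The tissue of the other fibroblasts is not given here.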
